Laboratory results from article PMC7255043.
These are yes or no findings as the source states them, for the method shown. For some assays here: In cells and extracts the contact can be indirect. Some entries that bind do so weakly or less than the wild type.

By UniProt entry, the sequences of proteins in these tests, tags left out.
UniProt Q9NYV4: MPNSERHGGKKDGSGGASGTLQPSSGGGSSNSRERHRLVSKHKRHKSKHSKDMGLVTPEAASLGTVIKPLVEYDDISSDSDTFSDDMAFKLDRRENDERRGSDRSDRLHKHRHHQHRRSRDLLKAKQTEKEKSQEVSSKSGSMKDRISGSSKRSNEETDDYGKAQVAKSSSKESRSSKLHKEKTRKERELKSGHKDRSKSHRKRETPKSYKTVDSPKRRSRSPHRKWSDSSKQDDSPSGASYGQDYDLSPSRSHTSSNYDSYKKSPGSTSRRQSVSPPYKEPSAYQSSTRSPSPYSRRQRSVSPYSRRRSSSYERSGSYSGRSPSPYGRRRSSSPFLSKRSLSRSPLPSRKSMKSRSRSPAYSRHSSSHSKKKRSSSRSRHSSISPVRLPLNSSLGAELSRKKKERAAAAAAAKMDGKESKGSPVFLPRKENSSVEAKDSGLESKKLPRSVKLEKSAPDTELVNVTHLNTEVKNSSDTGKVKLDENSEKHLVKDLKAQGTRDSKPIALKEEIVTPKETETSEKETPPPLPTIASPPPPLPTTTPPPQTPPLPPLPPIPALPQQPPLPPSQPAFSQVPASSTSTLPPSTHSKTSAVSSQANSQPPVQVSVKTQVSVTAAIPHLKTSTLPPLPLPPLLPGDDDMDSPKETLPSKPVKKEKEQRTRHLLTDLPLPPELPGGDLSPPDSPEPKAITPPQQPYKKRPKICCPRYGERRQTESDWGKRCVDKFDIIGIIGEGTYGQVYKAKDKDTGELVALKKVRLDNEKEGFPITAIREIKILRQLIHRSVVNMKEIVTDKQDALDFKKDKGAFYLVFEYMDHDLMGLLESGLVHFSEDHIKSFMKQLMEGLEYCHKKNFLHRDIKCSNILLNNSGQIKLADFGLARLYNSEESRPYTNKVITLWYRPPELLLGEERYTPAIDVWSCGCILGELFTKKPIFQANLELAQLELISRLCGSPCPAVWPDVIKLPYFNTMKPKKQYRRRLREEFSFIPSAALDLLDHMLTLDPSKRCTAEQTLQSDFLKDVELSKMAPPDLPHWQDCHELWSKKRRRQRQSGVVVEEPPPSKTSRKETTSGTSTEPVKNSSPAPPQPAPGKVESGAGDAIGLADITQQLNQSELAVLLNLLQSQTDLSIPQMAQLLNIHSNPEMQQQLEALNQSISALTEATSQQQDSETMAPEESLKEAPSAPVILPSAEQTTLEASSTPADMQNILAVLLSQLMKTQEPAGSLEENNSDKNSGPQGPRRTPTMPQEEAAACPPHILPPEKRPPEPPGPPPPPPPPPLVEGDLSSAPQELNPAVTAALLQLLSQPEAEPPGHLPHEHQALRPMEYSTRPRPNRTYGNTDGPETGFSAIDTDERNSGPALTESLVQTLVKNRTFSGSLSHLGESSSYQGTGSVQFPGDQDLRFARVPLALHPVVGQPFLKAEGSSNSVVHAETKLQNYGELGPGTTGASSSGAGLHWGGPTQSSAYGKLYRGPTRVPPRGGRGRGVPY
UniProt Q13177: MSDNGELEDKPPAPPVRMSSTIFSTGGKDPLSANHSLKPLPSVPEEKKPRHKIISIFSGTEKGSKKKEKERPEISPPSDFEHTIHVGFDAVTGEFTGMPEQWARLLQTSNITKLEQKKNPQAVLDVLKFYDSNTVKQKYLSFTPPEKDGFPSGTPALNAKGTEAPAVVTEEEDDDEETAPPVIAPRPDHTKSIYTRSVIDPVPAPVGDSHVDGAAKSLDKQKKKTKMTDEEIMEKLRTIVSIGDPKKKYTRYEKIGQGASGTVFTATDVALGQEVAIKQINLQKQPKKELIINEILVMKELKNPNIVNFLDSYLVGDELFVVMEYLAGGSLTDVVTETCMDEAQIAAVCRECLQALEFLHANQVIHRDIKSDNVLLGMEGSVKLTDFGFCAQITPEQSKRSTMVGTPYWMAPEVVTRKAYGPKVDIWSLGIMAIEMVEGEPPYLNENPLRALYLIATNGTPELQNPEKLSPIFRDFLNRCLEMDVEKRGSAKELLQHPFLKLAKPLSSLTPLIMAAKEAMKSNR

Experiments:
[1] = biological target: cyclin-dependent kinase 12 (human (endogenous in SNU-1)) (UniProt Q9NYV4); experiment: co-IP; SNU-1 cell lysates incubated with normal IgG, anti-CDK12 or anti-PAK2 antibody, 4 °C overnight; protein A/G agarose beads 2 h; PAK2 or CDK12 detected by western blot
[2] = biological target: recombinant CDK12 (UniProt Q9NYV4); experiment: co-IP; recombinant CDK12 and PAK2 proteins immunoprecipitated with IgG or anti-CDK12/anti-PAK2 antibodies; western blot (in vitro); both purified

binding [1]	binding [2]	Substance
binds	–	p21 activated kinase 2 (from UniProt Q13177 1-524)
–	binds	recombinant PAK2 (from UniProt Q13177 1-524) (enzyme)
